Laboratory results from the supplement of paper PMC10849652.
Some of the results follow. Residues, ends and D or L forms follow the SMILES beside them. *: point of attachment. Cbz = O=C(OCc1ccccc1)*

The chains behind the UniProt entries cited, without tags or fusion partners. Where a name states a change or a piece, a line headed by the entry shows the natural chain unless it says otherwise.
UniProt O43396: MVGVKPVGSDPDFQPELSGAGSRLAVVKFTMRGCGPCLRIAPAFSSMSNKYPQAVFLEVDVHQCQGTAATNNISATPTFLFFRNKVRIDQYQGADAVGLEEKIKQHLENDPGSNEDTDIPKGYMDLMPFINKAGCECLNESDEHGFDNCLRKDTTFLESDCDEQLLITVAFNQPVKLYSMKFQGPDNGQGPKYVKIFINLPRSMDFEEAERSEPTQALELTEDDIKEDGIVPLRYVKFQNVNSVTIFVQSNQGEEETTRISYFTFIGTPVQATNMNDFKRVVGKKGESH
UniProt Q8NG11: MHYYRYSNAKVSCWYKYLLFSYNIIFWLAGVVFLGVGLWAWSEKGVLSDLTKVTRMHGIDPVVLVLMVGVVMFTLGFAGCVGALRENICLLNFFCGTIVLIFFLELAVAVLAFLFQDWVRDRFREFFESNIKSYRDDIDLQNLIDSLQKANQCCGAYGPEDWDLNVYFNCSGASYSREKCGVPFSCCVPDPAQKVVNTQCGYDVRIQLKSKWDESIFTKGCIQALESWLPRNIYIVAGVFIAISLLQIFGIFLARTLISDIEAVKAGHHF
UniProt Q9Y385: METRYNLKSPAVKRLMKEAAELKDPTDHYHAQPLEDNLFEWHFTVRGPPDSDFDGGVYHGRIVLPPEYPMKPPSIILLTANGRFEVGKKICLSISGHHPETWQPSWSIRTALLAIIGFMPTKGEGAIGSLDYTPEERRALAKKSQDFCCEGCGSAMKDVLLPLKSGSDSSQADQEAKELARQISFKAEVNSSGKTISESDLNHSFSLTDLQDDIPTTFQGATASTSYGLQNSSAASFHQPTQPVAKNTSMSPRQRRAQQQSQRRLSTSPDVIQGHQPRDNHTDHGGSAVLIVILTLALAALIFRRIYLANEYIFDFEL
UniProt P62256: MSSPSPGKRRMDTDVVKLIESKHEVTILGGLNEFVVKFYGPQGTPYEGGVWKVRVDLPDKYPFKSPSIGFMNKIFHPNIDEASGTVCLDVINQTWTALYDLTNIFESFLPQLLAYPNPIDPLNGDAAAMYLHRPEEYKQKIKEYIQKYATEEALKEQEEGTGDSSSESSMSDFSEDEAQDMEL
UniProt Q9BQE3, whole entry, looked up: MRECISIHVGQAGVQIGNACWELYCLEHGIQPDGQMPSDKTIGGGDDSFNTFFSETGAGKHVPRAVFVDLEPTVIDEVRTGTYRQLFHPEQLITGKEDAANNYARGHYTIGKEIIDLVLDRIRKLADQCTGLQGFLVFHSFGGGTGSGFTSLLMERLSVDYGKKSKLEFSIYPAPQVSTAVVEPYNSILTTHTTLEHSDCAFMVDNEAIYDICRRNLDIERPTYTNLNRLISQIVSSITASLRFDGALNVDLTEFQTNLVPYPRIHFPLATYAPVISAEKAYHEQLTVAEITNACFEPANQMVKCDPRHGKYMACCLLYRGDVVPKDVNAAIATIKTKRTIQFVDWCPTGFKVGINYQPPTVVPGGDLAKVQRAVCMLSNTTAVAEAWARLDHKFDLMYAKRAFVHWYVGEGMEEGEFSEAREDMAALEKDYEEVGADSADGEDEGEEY
UniProt P63279, whole entry, looked up: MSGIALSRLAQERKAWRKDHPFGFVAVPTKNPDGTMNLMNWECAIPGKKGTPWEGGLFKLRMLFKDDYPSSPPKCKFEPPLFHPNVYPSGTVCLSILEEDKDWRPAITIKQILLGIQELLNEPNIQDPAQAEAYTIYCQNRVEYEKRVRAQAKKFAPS
UniProt Q14157: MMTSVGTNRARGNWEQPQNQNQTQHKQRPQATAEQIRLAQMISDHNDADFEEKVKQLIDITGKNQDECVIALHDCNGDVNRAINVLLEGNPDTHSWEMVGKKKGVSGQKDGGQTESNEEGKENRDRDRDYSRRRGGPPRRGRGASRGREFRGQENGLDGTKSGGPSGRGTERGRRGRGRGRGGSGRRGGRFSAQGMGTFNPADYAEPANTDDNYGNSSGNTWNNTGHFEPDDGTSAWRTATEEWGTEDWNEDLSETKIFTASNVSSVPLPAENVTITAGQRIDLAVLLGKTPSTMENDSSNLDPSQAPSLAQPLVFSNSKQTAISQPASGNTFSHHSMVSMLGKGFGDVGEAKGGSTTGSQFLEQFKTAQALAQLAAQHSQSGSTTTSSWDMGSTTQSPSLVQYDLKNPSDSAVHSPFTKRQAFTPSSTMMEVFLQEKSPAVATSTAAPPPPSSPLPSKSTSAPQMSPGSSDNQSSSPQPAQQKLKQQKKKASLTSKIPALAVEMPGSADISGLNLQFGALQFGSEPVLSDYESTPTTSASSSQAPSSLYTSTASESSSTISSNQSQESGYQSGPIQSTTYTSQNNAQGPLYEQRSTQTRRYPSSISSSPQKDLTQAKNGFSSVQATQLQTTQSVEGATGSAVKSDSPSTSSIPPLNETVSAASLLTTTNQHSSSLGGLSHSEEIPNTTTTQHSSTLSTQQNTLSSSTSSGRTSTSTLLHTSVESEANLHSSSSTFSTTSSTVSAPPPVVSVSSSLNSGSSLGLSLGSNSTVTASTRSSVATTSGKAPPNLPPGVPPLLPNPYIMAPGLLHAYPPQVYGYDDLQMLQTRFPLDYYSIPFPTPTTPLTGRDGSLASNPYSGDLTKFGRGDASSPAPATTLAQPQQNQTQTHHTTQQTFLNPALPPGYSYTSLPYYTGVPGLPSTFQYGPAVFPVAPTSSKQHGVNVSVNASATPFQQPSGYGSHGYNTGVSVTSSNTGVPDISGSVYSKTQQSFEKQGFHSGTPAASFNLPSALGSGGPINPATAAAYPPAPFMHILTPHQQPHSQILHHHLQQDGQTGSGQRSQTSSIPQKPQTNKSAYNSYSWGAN
UniProt Q9BTX7: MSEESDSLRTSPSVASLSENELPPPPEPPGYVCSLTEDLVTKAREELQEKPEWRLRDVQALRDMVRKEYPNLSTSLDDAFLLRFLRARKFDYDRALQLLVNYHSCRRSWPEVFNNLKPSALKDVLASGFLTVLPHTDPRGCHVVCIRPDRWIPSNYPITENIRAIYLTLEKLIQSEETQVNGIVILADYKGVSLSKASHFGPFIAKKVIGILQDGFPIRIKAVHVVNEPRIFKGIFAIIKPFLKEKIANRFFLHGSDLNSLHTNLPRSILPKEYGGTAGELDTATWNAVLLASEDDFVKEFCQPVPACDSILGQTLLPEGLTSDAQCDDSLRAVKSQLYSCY
UniProt Q16881, whole entry, looked up: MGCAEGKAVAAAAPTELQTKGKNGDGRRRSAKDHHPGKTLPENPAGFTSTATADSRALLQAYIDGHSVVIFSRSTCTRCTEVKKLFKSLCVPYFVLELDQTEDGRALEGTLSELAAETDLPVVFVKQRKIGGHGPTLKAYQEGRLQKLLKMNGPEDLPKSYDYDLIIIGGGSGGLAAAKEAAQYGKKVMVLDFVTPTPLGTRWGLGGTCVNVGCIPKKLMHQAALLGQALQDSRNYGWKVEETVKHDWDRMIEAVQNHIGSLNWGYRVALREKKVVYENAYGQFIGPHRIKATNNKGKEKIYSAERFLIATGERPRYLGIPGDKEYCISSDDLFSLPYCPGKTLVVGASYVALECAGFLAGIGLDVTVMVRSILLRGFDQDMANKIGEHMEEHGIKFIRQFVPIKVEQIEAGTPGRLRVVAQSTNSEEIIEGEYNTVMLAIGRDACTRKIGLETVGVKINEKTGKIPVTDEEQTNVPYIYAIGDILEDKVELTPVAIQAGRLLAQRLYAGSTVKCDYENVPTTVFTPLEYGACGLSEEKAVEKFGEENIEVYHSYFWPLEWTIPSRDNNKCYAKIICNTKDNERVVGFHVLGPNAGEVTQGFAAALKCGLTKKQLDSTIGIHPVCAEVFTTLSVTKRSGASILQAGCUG
UniProt Q6NXR4: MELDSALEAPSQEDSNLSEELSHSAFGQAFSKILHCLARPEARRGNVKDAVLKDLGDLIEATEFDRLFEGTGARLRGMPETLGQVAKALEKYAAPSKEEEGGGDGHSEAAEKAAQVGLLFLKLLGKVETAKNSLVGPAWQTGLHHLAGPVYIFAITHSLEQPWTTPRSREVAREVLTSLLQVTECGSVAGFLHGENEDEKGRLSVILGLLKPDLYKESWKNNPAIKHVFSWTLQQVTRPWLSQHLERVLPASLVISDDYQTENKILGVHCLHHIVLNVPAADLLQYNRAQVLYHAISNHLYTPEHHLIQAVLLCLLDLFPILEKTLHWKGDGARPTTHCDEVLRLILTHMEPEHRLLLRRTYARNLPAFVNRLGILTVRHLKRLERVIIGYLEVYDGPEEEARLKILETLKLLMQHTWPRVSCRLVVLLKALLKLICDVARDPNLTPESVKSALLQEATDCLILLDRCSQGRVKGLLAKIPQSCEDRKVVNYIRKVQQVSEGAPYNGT
UniProt Q3KQV9: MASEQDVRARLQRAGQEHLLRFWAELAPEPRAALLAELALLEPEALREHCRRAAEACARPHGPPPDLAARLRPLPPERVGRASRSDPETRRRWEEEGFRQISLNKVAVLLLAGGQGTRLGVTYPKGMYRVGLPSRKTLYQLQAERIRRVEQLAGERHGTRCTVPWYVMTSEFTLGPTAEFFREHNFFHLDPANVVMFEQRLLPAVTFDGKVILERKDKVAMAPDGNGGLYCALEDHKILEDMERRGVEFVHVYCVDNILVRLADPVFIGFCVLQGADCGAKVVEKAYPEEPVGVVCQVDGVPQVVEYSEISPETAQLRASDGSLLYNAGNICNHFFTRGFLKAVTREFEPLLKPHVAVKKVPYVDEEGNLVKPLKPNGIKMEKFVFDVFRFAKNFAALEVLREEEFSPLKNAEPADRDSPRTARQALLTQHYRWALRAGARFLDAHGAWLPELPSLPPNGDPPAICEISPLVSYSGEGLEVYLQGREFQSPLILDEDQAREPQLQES
UniProt Q9H3M7: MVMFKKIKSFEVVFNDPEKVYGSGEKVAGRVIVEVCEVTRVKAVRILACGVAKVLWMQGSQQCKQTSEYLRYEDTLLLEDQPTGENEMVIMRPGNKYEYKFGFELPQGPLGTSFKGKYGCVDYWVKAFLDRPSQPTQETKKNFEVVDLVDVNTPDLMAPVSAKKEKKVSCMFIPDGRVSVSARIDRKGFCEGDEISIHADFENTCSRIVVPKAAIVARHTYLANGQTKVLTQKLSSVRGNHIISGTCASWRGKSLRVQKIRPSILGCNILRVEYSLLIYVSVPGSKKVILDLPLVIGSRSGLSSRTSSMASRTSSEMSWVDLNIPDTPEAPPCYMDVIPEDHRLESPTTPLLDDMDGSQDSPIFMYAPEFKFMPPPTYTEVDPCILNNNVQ
UniProt Q9NZ09: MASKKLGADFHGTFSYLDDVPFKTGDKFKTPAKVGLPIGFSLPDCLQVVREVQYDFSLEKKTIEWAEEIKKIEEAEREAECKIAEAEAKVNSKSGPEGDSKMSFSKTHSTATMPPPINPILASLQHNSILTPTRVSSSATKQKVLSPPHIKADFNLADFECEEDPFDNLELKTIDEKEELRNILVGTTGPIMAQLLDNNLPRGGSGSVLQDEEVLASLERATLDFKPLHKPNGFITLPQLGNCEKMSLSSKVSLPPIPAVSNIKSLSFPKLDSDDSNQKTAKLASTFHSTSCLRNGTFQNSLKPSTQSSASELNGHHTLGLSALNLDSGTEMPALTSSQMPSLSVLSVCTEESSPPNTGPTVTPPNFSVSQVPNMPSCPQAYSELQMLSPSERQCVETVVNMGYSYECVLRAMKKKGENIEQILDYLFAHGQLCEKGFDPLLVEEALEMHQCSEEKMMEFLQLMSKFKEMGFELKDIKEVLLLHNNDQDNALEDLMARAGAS
UniProt Q99816: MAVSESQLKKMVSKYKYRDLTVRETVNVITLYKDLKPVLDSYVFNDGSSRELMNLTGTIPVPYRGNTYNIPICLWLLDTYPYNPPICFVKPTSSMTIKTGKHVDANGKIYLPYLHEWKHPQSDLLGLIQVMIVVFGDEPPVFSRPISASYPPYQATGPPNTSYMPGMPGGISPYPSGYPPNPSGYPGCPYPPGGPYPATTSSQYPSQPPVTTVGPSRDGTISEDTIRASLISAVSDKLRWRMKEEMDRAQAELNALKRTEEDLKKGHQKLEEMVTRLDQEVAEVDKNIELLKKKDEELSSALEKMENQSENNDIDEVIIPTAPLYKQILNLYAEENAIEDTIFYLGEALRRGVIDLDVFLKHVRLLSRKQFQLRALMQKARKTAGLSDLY
UniProt P62253: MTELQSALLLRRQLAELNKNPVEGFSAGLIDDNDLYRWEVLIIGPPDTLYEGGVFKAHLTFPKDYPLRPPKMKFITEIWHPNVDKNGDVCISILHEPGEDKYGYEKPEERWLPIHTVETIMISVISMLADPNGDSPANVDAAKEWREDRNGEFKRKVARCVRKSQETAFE
UniProt Q99757: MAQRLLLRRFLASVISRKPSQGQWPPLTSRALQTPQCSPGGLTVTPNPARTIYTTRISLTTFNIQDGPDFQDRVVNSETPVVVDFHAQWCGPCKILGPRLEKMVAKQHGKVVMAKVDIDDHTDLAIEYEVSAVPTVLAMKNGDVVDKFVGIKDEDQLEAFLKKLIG

compound: CC(C)C[C@@H](C=O)NC(=O)[C@H](CC(C)C)NC(=O)[C@H](CC(C)C)NC(=O)OCc1ccccc1; assay: log2 fold change, soluble protein after heating vs DMSO (PISA); higher = thermal stabilisation; K562 cells, 10 uM, 30 min; active = over 0.2 and 3.5 SD of the protein, either way, in both replicates (recomputed)
Method in brief: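 Aliquots of K562 cells (2×10^6 cells/mL) treated with 10 μM compound for 30 min were heated for 3 min over 48°C-58°C. After pooling and extraction in PBS with 0.5% NP-40 at 4°C, soluble protein from a 21,000xg, 90 min spin was quantified by TMTpro 16plex LC-MS/MS with channel sums equalised. Thermal stability is expressed against control samples, from duplicates, as a log2 fold change.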

log2 fold change, active:
TXNL1 (UniProt O43396) 0.278

log2 fold change, inactive:
TSPAN14 (UniProt Q8NG11) 0.007
UBE2J1 (UniProt Q9Y385) 0.188
UBE2H (UniProt P62256) -0.018
TUBA1C (UniProt Q9BQE3) -0.022
UBE2I (UniProt P63279) -0.001
UBAP2L isoform 1 (UniProt Q14157) 0.029
TTPAL (UniProt Q9BTX7) -0.015
TXNRD1 (UniProt Q16881) -0.03
TTC27 (UniProt Q6P3X3) 0.092
TTI2 (UniProt Q6NXR4) 0.032
UAP1L1 (UniProt Q3KQV9) -0.023
TXNIP (UniProt Q9H3M7) 0.128
UBAP1 isoform 4 (UniProt Q9NZ09) 0.107
UBAP2L isoform 5 (UniProt Q14157) -0.012
TSG101 (UniProt Q99816) 0.031
TUBA1B (UniProt P68363) -0.037
UBA52 (UniProt P62987) 0.147
UBE2G1 (UniProt P62253) -0.049
TYW1 (UniProt Q9NV66) -0.056
TXN2 (UniProt Q99757) -0.029
UBA1 (UniProt P22314) -0.055
UBA6 -0.025

Reprinted at random: two entries already listed, in no set order.
log2 fold change, inactive:
UBE2I (UniProt P63279) -0.001
TXN2 (UniProt Q99757) -0.029
